Test results from PubChem BioAssay AID2685 (National Center for Advancing Translational Sciences (NCATS), 2010).
Some of the results follow. Shown are side measurements of this screen, not its main read-out; they come without a call. Compounds called inactive in the main read-out are mostly missing here. Words in brackets tell the shape of the fitted curve; partial curves, single points and poor fits give uncertain potencies.

Experiment: qHTS Assay for Lipid Storage Modulators in Drosophila S3 Cells;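 on cell number change: cells counted by Cell Tracker Red CMTPX staining in the red channel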
Conditions: BODIPY lipid droplet fluorescence, 18-24 h; for cell number change: measured here: cell count max response, cells fed with added oleic acid
Outline: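 Drosophila S3 cells got compounds at several concentrations plus oleic acid (400 uM solution). Laser-scanning cytometry with 488 nm excitation read lipid droplets at 500-530 nm and cells at 575-640 nm. Percent activity was relative to 20 uM Triacsin C.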

[1] = measured here: cell number channel AC50, cells fed with added oleic acid
[2] = measured here: lipid fluorescence (Fed channel) AC50, cells fed with added oleic acid

| SMILES | cell number change | AC50 [1] | AC50 [2] |
| --- | --- | --- | --- |
| Cc1ccc2nc3n(c(=O)c2c1)CCC3 | 15.5% | – | – |
| COc1ccc(N2CCN(C(=O)Cn3cnc4c(cnn4-c4ccccc4)c3=O)CC2)cc1 | 104% | 20.6 µM [rising, partial curve, poor fit] | – |
| O=C(Nc1ccc(F)cc1)Nc1ccc(S(=O)(=O)N2CCCC2)cc1 | -36.5% | 32.6 µM [falling, single point] | – |
| O=C(Nn1cnc2ccccc2c1=O)c1ccc([N+](=O)[O-])cc1Cl | – | 4.61 µM [rising, single point] | 5.17 µM [rising, single point] |
| CC(C)(C)OC(=O)CNC(=O)c1[nH]cnc1C(=O)NCCCCCN | -1.97% | – | 4.11 µM [rising, full curve, poor fit] |
| Cc1c(Cl)cccc1NS(=O)(=O)c1ccc2c(c1)C1C=CCC1C(c1ccc(C(=O)O)cc1)N2 (configuration not stated) | -20% | 0.291 µM [falling, full curve, poor fit] | 11.6 µM [falling, partial curve] |
| CCOC(=O)C1=C(C)N=c2s/c(=C/c3cccc(OCC(=O)O)c3)c(=O)n2C1c1ccc(F)cc1 (configuration not stated) | -5.41% | – | 6.51 µM [falling, single point] |
| COc1ccc([C@H]2[C@H](C(=O)OC(C)(C)C)N3N=Cc4ccccc4C3C23C(=O)c2ccccc2C3=O)cc1OC (some centres not stated) | -15.9% | 0.411 µM [rising, single point] | 29.1 µM [falling, single point] |
| Cn1ccnc1SCC(=O)Nc1cccc([N+](=O)[O-])c1 | – | – | 2.31 µM [falling, single point] |
| COc1ccc(C/C(N)=N/OC(=O)CCc2ccccc2)cc1 | -29.5% | – | – |
| CCOC(=O)N(NC(=O)C(O)(C(C)C)C(C)C)c1ccccc1 | -59.3% | 29.1 µM [falling, partial curve, poor fit] | 20.6 µM [falling, partial curve, poor fit] |
| Cc1ccc(NC(=O)c2sccc2C)cc1S(=O)(=O)N(C)C | 19.1% | – | 2.59 µM [rising, partial curve, poor fit] |
| Cc1cc(C(=O)N[C@@H](c2ccccc2)[C@]2(C)C[C@H]2[C@@H](C)C(=O)Nc2ccc3ccccc3c2)no1 | -48.4% | 11.6 µM [falling, partial curve] | 4.61 µM [falling, partial curve] |
| CCCCn1c(N)c(N(CC(C)C)C(=O)C2CC(=O)N(Cc3ccccc3)C2)c(=O)[nH]c1=O (configuration not stated) | 25% | – | – |
| CCOC(=O)c1c(NC(=O)CSc2nnc(-c3ccc(C)cc3)o2)sc(C(C)=O)c1C | -25.8% | – | – |
| CCCC(=O)Nc1cccc(NC(=O)c2ccc3c(c2)OCCO3)c1 | -0.786% | – | 29.1 µM [rising, single point] |
| CCN1CCN(Cc2ccc(NC(=O)c3cc(NC(=O)c4cnnc5ccccc45)cc(OC)c3)cc2C(F)(F)F)CC1 | 22% | – | 23.1 µM [rising, partial curve] |
| Nc1c(N2CCCC2)cc(Cl)c2nonc12 | -19.1% | – | 0.00461 µM [falling, full curve, poor fit] |
| O=C(NS(=O)(=O)c1ccccc1[N+](=O)[O-])c1ccccc1 | 11.6% | – | 16.4 µM [rising, single point] |

Gathered by group, the entries above with an NH in an aromatic ring (2)

| SMILES | cell number change | AC50 [1] | AC50 [2] |
| --- | --- | --- | --- |
| CC(C)(C)OC(=O)CNC(=O)c1[nH]cnc1C(=O)NCCCCCN | -1.97% | – | 4.11 µM [rising, full curve, poor fit] |
| CCCCn1c(N)c(N(CC(C)C)C(=O)C2CC(=O)N(Cc3ccccc3)C2)c(=O)[nH]c1=O (configuration not stated) | 25% | – | – |

Carrying on:

| SMILES | cell number change | AC50 [1] | AC50 [2] |
| --- | --- | --- | --- |
| N#CCSc1nnc2c(Cl)cc(Cl)cn12 | 27.6% | 0.82 µM [rising, full curve, poor fit] | – |
| CC(C)(C)S(=O)(=O)c1nc2ccccc2s1 | -38.6% | 2.31 µM [falling, full curve, poor fit] | – |
| [NH-]c1ncnc2c1N=C[N+]2=CC=CCO | 11.6% | 0.00517 µM [rising, full curve, poor fit] | 1.84 µM [rising, partial curve, poor fit] |
| Cc1c(C#N)c(N=CN(C)C)c(C(=O)c2ccc(Br)cc2)n1-c1ccc(Cl)cc1 | 128% | 29.1 µM [rising, single point] | 0.58 µM [falling, single point] |
| CCC(=O)Nc1cc(-c2nn(C)c(=O)c3ccccc23)ccc1N1CCOCC1 | – | 2.91 µM [rising, single point] | 4.61 µM [rising, partial curve] |
| Cc1ccc(NC(=O)CCCC(=O)O)c(Br)c1 | -34.1% | 6.51 µM [falling, partial curve] | 13 µM [falling, partial curve] |
| Cc1cccc(C)c1NC(=O)CN1CCN(C(=O)C2CCC2)CC1 | 26% | – | – |
| COc1ccc(/C=C/C(=O)NCCc2c[nH]c3ccccc23)cc1OC | -42.8% | 9.2 µM [falling, single point] | 9.2 µM [falling, single point] |
| O=C(NCC1COc2ccccc2O1)c1ccc(NC(=O)c2ccco2)cc1 (configuration not stated) | -2.73% | – | 6.51 µM [rising, single point] |
| O=C(O)c1cccc(NC(=S)N/N=C/c2cccnc2)c1 | -29.6% | – | – |
| CCOC(=O)Cn1c(=O)oc2cc(S(=O)(=O)NCC3CCCO3)ccc21 (configuration not stated) | -8.16% | 0.103 µM [falling, full curve, poor fit] | 0.651 µM [falling, single point] |
| CCOC(=O)Cc1csc(NC(=O)c2cccs2)n1 | 3.89% | – | 2.59 µM [rising, full curve] |
| CN(CC(=O)Nc1cccc(F)c1)C(=O)c1cn(-c2ccccc2)nc1-c1ccc(F)cc1 | 0.407% | – | – |
| Cc1ccc2nc(SCc3nc4ccccc4c(=O)[nH]3)[nH]c2c1 | 23.7% | – | 0.0116 µM [rising, full curve, poor fit] |
| Cc1ccc([N+](=O)[O-])c2c1C(N1CCCC1)C(C)(C)O2 (configuration not stated) | 68.3% | – | 5.17 µM [rising, full curve, poor fit] |
| Cc1ccccc1NC(=O)c1ccc2c(c1)C(=O)N(CCC(C)C)C2=O | 103% | 6.51 µM [rising, partial curve] | 18.4 µM [rising, partial curve] |
| Cc1nc2c(=O)oc3ccccc3c2n1-c1ccccc1 | – | – | 3.66 µM [rising, partial curve, poor fit] |
| Cc1c(NC(=O)CSc2nnnn2-c2ccc(F)cc2)c(=O)n(-c2ccccc2)n1C | 0.281% | – | – |
| CN1CCNC(=O)C1CC(=O)NCCc1ccccc1F (configuration not stated) | -24.1% | – | 25.9 µM [falling, partial curve, poor fit] |

| SMILES | cell number change | AC50 [1] | AC50 [2] |
| --- | --- | --- | --- |
| CC1CC(C)(C)NC(=S)N1CCC(=O)N1CCN(Cc2ccccc2)CC1 (configuration not stated) | -69.6% | 0.326 µM [falling, partial curve, poor fit] | 23.1 µM [falling, partial curve, poor fit] |
| Fc1ccc(-n2c(-c3ccc4c(c3)OCO4)n[nH]c2=S)cc1Cl | 1.99% | – | 0.517 µM [rising, partial curve, poor fit] |
| CC(=O)Nc1nc(C)c(-c2csc(Nc3cccc(C(C)=O)c3)n2)s1 | -20.3% | – | 29.1 µM [falling, single point] |
| CC(OC(=O)[C@H](C)NC(=O)c1ccccc1Cl)C(=O)NCc1ccc2c(c1)OCO2 (some centres not stated) | 9.5% | – | – |
| COc1cc(NS(=O)(=O)c2ccc3c(c2)n(C)c(=O)n3C)cc(OC)c1 | 53.7% | 2.59 µM [rising, partial curve] | – |
| COc1ccc(-n2c(-c3ccc(Br)cc3)c[n+]3c2SC(C)C3)cc1 (configuration not stated) | -35.7% | 29.1 µM [falling, single point] | 1.84 µM [falling, full curve, poor fit] |
| CC1CC(C)(C)NC(=S)N1CC(=O)N1CCN(Cc2ccccc2)CC1 (configuration not stated) | -95.3% | – | – |
| C/C(=C/c1ccccc1)C(=O)N1CCN(c2ccc(F)cc2)CC1 | 19.6% | – | 29.1 µM [rising, single point] |
| Clc1ccc(CO/N=C/c2c(-c3ccccc3)nc3n2CCS3)c(Cl)c1 | 24.3% | – | 23.1 µM [rising, single point] |
| Cc1nonc1NC(=O)CSc1nc(C23CC4CC(CC(C4)C2)C3)nc2ccccc12 | 22.2% | – | 29.1 µM [rising, single point] |
| CN(C(=O)c1ccccc1Cl)c1ccccc1C(=O)NCCc1ccccc1 | – | 2.59 µM [falling, partial curve] | 29.1 µM [falling, single point] |
| CC1CN(S(=O)(=O)c2ccc(Cl)c(C(F)(F)F)c2)CC(C)O1 (configuration not stated) | – | – | 0.058 µM [falling, full curve, poor fit] |
| Fc1ccc(CSc2nc3ccccc3[nH]2)c2ccccc12 | 11.4% | – | 11.6 µM [rising, partial curve] |
| O[C@@H](c1cc(C(F)(F)F)nc2c(C(F)(F)F)cccc12)[C@H]1CCCCN1 | -35.7% | 16.4 µM [falling, partial curve, poor fit] | 13 µM [falling, partial curve] |
| CN(C)C(=O)c1ccc(Nc2ncnc3sc4c(c23)CCCCC4)cc1 | 11.7% | – | 29.1 µM [falling, single point] |
| c1ccc2nc(N3CCN(Cc4ccc5c(c4)OCO5)CC3)cnc2c1 | -24.3% | 1.84 µM [falling, full curve, poor fit] | 2.59 µM [falling, partial curve, poor fit] |
| COc1ccc(C(=O)Nc2ccc3nc(N4CCOCC4)sc3c2)cc1OC | 0.625% | – | – |
| COc1ccc(Cn2nnnc2C(c2cc3ccc(OC)cc3[nH]c2=O)N2CCC(C)CC2)cc1 (configuration not stated) | 8.49% | 5.8 µM [rising, single point] | – |
